Data: publication PMC12469161, “Anti-cancer compound screening identifies Aurora Kinase A inhibition as a means to favor CRISPR/Cas9 gene correction over knock-out” (PLOS One, 2025)

Tested on: HEK293T-eGFP cells
Experiment: MTT cytotoxicity assay, 72 hours
Format: cell-based
Protocol: Cells were cultured for 16–24 hours under standard culturing conditions (5% CO2, 37 °C). […] All dose ranges were added in duplicate, followed by 72 hours of incubation. Cell viability was determined using a tetrazolium based metabolic activity assay. Briefly, 5 µL of 3-(4.5-dimethylthiazol-2-yl)-2,5-diphenyltetrazolium bromide (MTT) solution (5 mg/mL MTT in sterile PBS) was added per well, and the microplates were incubated for 4 hours at 37°C and 5% CO2 in a cell culture incubator. Next, 40 µL of 10% SDS/0.01 M HCl was added per well, and the microplates were incubated for 24–72 hours at 37°C and 5% CO2 in a cell culture incubator. Subsequently the absorbance at 570 nm and background absorbance at 720 nm were measured using the Spectramax i3x (Molecular Devices, San Jose, USA). Subsequently, the absorbance values at 720 nm were subtracted from the absorbance values at 570 nm, and the corresponding values were used to plot dose-response curves.
The data was normalized to the DMSO-treated cells (defined as 100% viability) and the empty controls (defined as 0% viability).

CCNC(=O)C[C@@H]1N=C(c2ccc(Cl)cc2)c2cc(OC)ccc2-n2c(C)nnc21 [Molibresib]
IC50: 1.78 µM
